{
  "source": "paper doi:10.1101/2020.05.07.083568",
  "key": {"[1]": {"target": "His-TbUnc119 (Trypanosoma brucei) (UniProt Q586Q9)", "assay": "pull-down"}, "[2]": {"target": "GST-TbArl3A (Trypanosoma brucei) (UniProt Q57XJ5)", "assay": "pull-down"}, "[3]": {"target": "GST-TbArl3A (Trypanosoma brucei) (UniProt Q57XJ5)", "assay": "pull-down", "remark": "listed apart in the source"}, "[4]": {"target": "GFP-TbUnc119 (Trypanosoma brucei) (UniProt Q586Q9)", "assay": "co-IP"}},
  "note": "Where two headings read alike, the source gives them in different places. These are yes or no findings as the source states them, for the method shown. Binding can be weak; no strength is given. For some of these results: In cells and extracts the contact can be indirect.",
  "data": [
    {"molecule": "GST-TbArl3A (from UniProt Q57XJ5)", "values": [
      {"measurement": "binding", "setting": "[1]", "value": "binds"}
    ]},
    {"molecule": "His-TbUnc119 (from UniProt Q586Q9)", "values": [
      {"measurement": "binding", "setting": "[2]", "value": "binds"},
      {"measurement": "binding", "setting": "[3]", "value": "binds"}
    ]},
    {"molecule": "TbSMP1-1-BB2 (protein, UniProt Q4GYZ8 1-123, N-terminal myristoylation site (G2)) MGCGGSKTSTVEFINGQPTVQGDEIVKGFNEGNGLLFRIVKTRAGRWAYYNDTLDYDMHVKVTFSEDCRIKALGQTRLEKLESGESVATVVVKPCATELFIEGHVNGYKAKMDAIPITDGDRQ", "values": [
      {"measurement": "binding", "setting": "[4]", "value": "binds"}
    ]}
  ]
}
